Experimental data published in publication PMC7819943, “Rice protein-binding microarrays: a tool to detect cis-acting elements near promoter regions in rice”.
The other results are listed elsewhere or left out.

Chains of the proteins cited; added tags and fusions are not shown.
UniProt Q0JBA9, entry or part of it: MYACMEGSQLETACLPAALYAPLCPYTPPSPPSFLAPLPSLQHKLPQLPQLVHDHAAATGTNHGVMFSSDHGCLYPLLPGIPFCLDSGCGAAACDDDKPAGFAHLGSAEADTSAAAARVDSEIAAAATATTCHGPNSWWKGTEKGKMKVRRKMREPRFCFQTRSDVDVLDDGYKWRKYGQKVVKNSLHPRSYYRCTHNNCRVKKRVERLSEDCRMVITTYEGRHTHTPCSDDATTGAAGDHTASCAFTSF

target: OsWRKY34 (Oryza sativa, UniProt Q0JBA9 1-250); assay: protein-binding microarray (RPBM); PBS, 2% BSA, 51.3 ng/ul salmon testes DNA, 50 uM zinc acetate, 200 nM TF, 25 C, 1 h; high values mean tight binding; conditions: protein: recombinant; tags: N-terminal polyhistidine and DsRed monomer fusion (pET32a); label: CyDye5-dUTP incorporated in the synthesized complementary strand; 3' TTTTT single-stranded linker to array surface; dsDNA, one strand shown
Procedure, shortened: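 In PBS with 2% BSA, salmon testes DNA and 50 µM zinc acetate, 200 nM protein was incubated on a custom Agilent array at 25 °C for 1 h and then washed off. The array had been made double-stranded by primer extension with Cy5-dUTP and blocked with 2% BSA. The proteins were transcription factors fused N-terminally to polyhistidine and DsRed, expressed in E. coli BL21-CodonPlus and purified on Ni–NTA. The binding signal is per-feature fluorescence intensity (arbitrary units) from an Axon 4000B scanner.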

Sequence	binding signal
TTGTTGCTATTTATGCCCATTAGCTTCTGGTAGACAAGGGCGGAGTCACCTAGTGCAG	8870 fluorescence intensity (a.u.)
ATCCACTGTTTGTGAATTGTCAATTTGTCATGCGTTGTACCGGAGTCACCTAGTGCAG	9440 fluorescence intensity (a.u.)
AATGAAAATCGGGGCGTTACAATACCCATCGGGTTCTCTTCGGAGTCACCTAGTGCAG	8560 fluorescence intensity (a.u.)
TCCTTGTATTCCTGTCATCCTGTGTGCCACTTGATAGAAACGGAGTCACCTAGTGCAG	8900 fluorescence intensity (a.u.)
AACCTCCATCTCCCGCCCAGTGCCGCCGCGCCACGTCACCCGGAGTCACCTAGTGCAG	12700 fluorescence intensity (a.u.)
GGCTTTGCAATTGTCGCCTGTTGTTTGCAGATGCGCGCTCCGGAGTCACCTAGTGCAG	10400 fluorescence intensity (a.u.)
GGTTGGTGACGCGTTGTTGTTTGTTCCTCAAATTTGTTCTCGGAGTCACCTAGTGCAG	16500 fluorescence intensity (a.u.)
CCCGTGCCCGTCGTGCCCGACTGCCATCCCTATTCGAGACCGGAGTCACCTAGTGCAG	9800 fluorescence intensity (a.u.)
AAAATTGGAATCCGTCTCATCTTCGCTTGCTCTCTTCTCTCGGAGTCACCTAGTGCAG	8130 fluorescence intensity (a.u.)
ATCCATCCGTTTCATAATGTAAGACTTTCTAGCATTGTCCCGGAGTCACCTAGTGCAG	8250 fluorescence intensity (a.u.)
CCGTCGCACCGTCTCCACTCGTCCCGGATCAACAAACCGCCGGAGTCACCTAGTGCAG	10500 fluorescence intensity (a.u.)
CAACTAATTTCAAGCACCATCCAGACGTATATTTTTTTTCCGGAGTCACCTAGTGCAG	10000 fluorescence intensity (a.u.)
GGTGCTTTGGTTTACTACCTTCATTTTTTAATATATGACACGGAGTCACCTAGTGCAG	9010 fluorescence intensity (a.u.)
CCTCATCCTCTCGCTGATCCTCTCCCTCCTCACCTGCAAACGGAGTCACCTAGTGCAG	8350 fluorescence intensity (a.u.)
AATCTTTTTTTTGTTTTGCTGGTAGTATGTGCTGTCAAATCGGAGTCACCTAGTGCAG	8040 fluorescence intensity (a.u.)
ATTCAAATTTGTCAAACATTGTTTTCTTCTCTTTCATATCCGGAGTCACCTAGTGCAG	8650 fluorescence intensity (a.u.)
CCGCGCGGTGCTCGAGGTGTATGTCTCGTCCCACAACTTCCGGAGTCACCTAGTGCAG	9180 fluorescence intensity (a.u.)
GGGAGTCAAAGTAGACTTATTCTTCCCCAATCCATCTCAGCGGAGTCACCTAGTGCAG	8330 fluorescence intensity (a.u.)
TCCACCACCACCGCTGTACCACCGTGCGTTCCACTCTTCTCGGAGTCACCTAGTGCAG	13500 fluorescence intensity (a.u.)
TCTCTTTTTGTAGCTACACTACCAATAACCTATTGTCCTCCGGAGTCACCTAGTGCAG	9410 fluorescence intensity (a.u.)
AGGGATTTTTTTCTCACTACTTTTTTGCTGGCTTTGACGCCGGAGTCACCTAGTGCAG	10500 fluorescence intensity (a.u.)
TAGTGTTTGCTCTTCATCTAGAATTGTTGTGTTTCTGTACCGGAGTCACCTAGTGCAG	8760 fluorescence intensity (a.u.)
CACCTCGTTGCTCACGCCTCACCGCACCTCCACATCACCACGGAGTCACCTAGTGCAG	9690 fluorescence intensity (a.u.)
GAGGGCGGAGGAGGTGGTGAGGGAGGAGGTGCGGAGGCTGCGGAGTCACCTAGTGCAG	8320 fluorescence intensity (a.u.)
GTGATGGTGTTTCTCTTTGCAATTCAATTTTGCGTGGCTCCGGAGTCACCTAGTGCAG	10600 fluorescence intensity (a.u.)
ATCGATCATCAACGGCCCATCGAGCACCTCCGGCCGAGCCCGGAGTCACCTAGTGCAG	8350 fluorescence intensity (a.u.)
CTTGATCAACTTGGCTACATCCGTCCCTTATCCAGCTAAACGGAGTCACCTAGTGCAG	10100 fluorescence intensity (a.u.)

Sequence	binding signal
GTTGCAGGTTCTTCAGTCCACTTGGGATGGTTCCGGTGGTCGGAGTCACCTAGTGCAG	10700 fluorescence intensity (a.u.)
CACCACGGCTTCCACACAGCCCGCCAAACCGGCATGCACTCGGAGTCACCTAGTGCAG	10400 fluorescence intensity (a.u.)
CCCCTTCGCCGTCGTCTTATGCGCTTCCCACGGGGCCGCACGGAGTCACCTAGTGCAG	9810 fluorescence intensity (a.u.)
AACCGCGACCACCTCTGCTTCTCCCCTTCTCTCTCCTCCCCGGAGTCACCTAGTGCAG	8030 fluorescence intensity (a.u.)
GGGAGCGGGTGGGAGTGGCCGGCGCGGAGGACGACGGCGGCGGAGTCACCTAGTGCAG	8280 fluorescence intensity (a.u.)
AGACTCTTGTTTGCTTCATTCCTATCCAGTTTCATCCAACCGGAGTCACCTAGTGCAG	8530 fluorescence intensity (a.u.)
ATTCCCAGCCGCCTCTCTTCTTGTTAGGGGATCCGAAATCCGGAGTCACCTAGTGCAG	11700 fluorescence intensity (a.u.)
TGTTCTCATTGCCGCCTCCTTTGTTTGCACACACCCCAACCGGAGTCACCTAGTGCAG	13500 fluorescence intensity (a.u.)
CCACCTATCTGGCCTGGCTCACTCTTTCTCCGTTTATTTTCGGAGTCACCTAGTGCAG	13900 fluorescence intensity (a.u.)
CAACCTTCATGACCTGCATAACAGCCTGATTGCTTCTAAACGGAGTCACCTAGTGCAG	13000 fluorescence intensity (a.u.)
TGCTTCTCCTCACCCGTGCTCGCTTGCCTCGCTCTGCGTTCGGAGTCACCTAGTGCAG	8620 fluorescence intensity (a.u.)
CCAAGACCGCACCCGTATAAAGCCGCAGACCTCTCTCTCCCGGAGTCACCTAGTGCAG	10100 fluorescence intensity (a.u.)
GAGTTCTTCAGTTCATCTATTGCTCACCTTAGCAACCATCCGGAGTCACCTAGTGCAG	8450 fluorescence intensity (a.u.)
GCATCCAACCGCCCATGGAAATCCCCGCGCGCCCTCCCAGCGGAGTCACCTAGTGCAG	12000 fluorescence intensity (a.u.)
GGAGAGGAGGCGGAGGTGAAGGGGAAGGGGCAGGGGAGGACGGAGTCACCTAGTGCAG	11400 fluorescence intensity (a.u.)
TCGTCTTCACGCGGACATTGTAGTCCCACTCGAGCTTCTCCGGAGTCACCTAGTGCAG	8060 fluorescence intensity (a.u.)
ATCATCGCTCGCAGTCGCAGCACAAAAACATTTCTCTCGCCGGAGTCACCTAGTGCAG	8920 fluorescence intensity (a.u.)
CCATCTCCTACACGACTTTTGTTTCATCATCTATTCTCCTCGGAGTCACCTAGTGCAG	15900 fluorescence intensity (a.u.)
AGAGAACCGTCCATTCATCTATTGATCATTGTATCATTCCCGGAGTCACCTAGTGCAG	9140 fluorescence intensity (a.u.)
TGTTAGCTCCTCACCGTCACCGGTGTGCCTCGCGTCGTTCCGGAGTCACCTAGTGCAG	8670 fluorescence intensity (a.u.)
CGCCTGCTCCAGATCCGGTCATCGTCGTCTCGGTCGTCGTCGGAGTCACCTAGTGCAG	8050 fluorescence intensity (a.u.)
CTCACCACAAGGCCACATGTCATCGCTATTTTTTGCCTCGCGGAGTCACCTAGTGCAG	9000 fluorescence intensity (a.u.)
TGGAAAGAGGAGGGCGGGGAGAGGACTGGGGAGGGCGGGGCGGAGTCACCTAGTGCAG	17700 fluorescence intensity (a.u.)
ATCACTGATCTATTTAATTCTGCAGGTACCGCTTCATGCTCGGAGTCACCTAGTGCAG	8630 fluorescence intensity (a.u.)
CTCTCGTTCAAACGTTCGTCTGTTCAAACGTCAACCTTTCCGGAGTCACCTAGTGCAG	10500 fluorescence intensity (a.u.)
TGGCGCGTGGGAGGGTCAGCCTAGGGCGTCGGAGGGGCGGCGGAGTCACCTAGTGCAG	13400 fluorescence intensity (a.u.)
ACAAAGGGTCAAACGTTGGTAAAAAGTCAACGGTGTCGTTCGGAGTCACCTAGTGCAG	14200 fluorescence intensity (a.u.)

3 records picked at random from the list so far:
Sequence	binding signal
CAACCTTCATGACCTGCATAACAGCCTGATTGCTTCTAAACGGAGTCACCTAGTGCAG	13000 fluorescence intensity (a.u.)
CCAAGACCGCACCCGTATAAAGCCGCAGACCTCTCTCTCCCGGAGTCACCTAGTGCAG	10100 fluorescence intensity (a.u.)
ATCACTGATCTATTTAATTCTGCAGGTACCGCTTCATGCTCGGAGTCACCTAGTGCAG	8630 fluorescence intensity (a.u.)
